Data on nine substances can be found in publication PMC12411628.

The chains behind the UniProt entries cited, without tags or fusion partners.
UniProt P06730: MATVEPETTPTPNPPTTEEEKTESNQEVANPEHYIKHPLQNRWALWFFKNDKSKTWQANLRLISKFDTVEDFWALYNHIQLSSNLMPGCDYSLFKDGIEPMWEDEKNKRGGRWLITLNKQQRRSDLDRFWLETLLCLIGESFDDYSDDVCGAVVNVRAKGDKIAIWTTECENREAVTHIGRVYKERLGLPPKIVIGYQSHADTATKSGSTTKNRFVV
UniProt P55884: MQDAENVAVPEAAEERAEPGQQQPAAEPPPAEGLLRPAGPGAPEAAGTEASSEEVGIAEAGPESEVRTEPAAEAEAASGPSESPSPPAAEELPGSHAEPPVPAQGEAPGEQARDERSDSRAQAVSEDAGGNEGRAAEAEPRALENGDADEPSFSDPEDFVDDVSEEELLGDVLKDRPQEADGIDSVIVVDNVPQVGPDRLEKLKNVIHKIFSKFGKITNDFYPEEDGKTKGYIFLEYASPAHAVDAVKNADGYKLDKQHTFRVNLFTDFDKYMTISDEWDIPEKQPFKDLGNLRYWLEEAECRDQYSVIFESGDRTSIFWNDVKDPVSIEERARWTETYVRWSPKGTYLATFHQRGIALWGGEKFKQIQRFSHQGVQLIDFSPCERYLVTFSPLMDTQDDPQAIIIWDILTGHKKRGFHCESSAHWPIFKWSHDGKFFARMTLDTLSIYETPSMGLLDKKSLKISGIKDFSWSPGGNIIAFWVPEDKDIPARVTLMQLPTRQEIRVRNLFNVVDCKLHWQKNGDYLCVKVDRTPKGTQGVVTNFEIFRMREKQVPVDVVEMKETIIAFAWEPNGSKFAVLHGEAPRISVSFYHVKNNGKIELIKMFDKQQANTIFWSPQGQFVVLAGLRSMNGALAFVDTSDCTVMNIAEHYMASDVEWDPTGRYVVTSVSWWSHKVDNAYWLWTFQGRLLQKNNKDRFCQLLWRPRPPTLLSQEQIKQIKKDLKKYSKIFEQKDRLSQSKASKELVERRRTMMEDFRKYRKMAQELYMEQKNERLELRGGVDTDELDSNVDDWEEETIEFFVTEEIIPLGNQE
UniProt Q13347: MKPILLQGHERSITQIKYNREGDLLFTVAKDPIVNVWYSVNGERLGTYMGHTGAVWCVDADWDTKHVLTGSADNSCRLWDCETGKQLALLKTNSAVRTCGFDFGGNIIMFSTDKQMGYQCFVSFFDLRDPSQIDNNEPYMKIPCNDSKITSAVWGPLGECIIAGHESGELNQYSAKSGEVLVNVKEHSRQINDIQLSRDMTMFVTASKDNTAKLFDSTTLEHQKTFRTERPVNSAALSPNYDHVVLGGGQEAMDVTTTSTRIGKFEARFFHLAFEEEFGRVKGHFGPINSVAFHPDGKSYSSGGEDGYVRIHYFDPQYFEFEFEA
UniProt P05198: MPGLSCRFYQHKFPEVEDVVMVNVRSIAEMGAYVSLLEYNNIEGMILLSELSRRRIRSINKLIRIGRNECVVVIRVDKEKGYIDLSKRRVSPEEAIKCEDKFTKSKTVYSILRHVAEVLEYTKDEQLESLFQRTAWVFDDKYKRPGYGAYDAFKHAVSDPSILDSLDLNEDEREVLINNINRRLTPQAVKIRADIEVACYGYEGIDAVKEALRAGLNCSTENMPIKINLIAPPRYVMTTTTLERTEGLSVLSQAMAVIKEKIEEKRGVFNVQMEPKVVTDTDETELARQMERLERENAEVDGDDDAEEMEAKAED
UniProt O75821: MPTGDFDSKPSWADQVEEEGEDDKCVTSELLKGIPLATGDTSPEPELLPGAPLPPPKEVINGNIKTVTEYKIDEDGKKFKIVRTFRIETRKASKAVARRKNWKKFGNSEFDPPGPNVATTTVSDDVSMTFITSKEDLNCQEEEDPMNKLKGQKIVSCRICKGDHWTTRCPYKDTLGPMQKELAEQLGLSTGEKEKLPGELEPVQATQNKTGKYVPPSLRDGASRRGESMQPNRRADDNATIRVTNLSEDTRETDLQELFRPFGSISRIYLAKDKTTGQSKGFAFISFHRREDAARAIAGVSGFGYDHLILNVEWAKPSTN
UniProt P60842: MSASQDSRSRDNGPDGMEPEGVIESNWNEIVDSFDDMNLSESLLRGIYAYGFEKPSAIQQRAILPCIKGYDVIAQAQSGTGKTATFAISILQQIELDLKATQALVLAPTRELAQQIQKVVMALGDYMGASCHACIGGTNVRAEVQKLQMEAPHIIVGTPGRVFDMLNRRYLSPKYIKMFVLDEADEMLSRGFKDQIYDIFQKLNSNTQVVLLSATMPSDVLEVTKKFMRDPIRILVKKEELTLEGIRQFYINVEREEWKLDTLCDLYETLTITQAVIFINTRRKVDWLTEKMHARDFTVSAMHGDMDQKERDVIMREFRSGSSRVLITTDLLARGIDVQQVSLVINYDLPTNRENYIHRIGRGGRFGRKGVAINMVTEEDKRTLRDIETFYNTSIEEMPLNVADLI
UniProt O00303: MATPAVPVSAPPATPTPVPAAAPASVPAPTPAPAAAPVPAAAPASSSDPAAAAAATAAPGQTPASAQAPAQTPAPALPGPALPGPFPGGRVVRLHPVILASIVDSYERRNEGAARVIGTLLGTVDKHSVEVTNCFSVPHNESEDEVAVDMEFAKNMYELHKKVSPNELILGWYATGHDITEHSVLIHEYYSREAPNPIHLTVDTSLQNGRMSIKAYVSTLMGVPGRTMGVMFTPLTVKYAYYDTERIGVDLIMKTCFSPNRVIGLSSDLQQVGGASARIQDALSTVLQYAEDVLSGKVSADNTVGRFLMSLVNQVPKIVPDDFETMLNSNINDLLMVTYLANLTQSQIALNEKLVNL

Experiment [1] has as its target T1, Flag-tagged Ephexin1 (human) (UniProt Q8N5V2).
T1 sequence: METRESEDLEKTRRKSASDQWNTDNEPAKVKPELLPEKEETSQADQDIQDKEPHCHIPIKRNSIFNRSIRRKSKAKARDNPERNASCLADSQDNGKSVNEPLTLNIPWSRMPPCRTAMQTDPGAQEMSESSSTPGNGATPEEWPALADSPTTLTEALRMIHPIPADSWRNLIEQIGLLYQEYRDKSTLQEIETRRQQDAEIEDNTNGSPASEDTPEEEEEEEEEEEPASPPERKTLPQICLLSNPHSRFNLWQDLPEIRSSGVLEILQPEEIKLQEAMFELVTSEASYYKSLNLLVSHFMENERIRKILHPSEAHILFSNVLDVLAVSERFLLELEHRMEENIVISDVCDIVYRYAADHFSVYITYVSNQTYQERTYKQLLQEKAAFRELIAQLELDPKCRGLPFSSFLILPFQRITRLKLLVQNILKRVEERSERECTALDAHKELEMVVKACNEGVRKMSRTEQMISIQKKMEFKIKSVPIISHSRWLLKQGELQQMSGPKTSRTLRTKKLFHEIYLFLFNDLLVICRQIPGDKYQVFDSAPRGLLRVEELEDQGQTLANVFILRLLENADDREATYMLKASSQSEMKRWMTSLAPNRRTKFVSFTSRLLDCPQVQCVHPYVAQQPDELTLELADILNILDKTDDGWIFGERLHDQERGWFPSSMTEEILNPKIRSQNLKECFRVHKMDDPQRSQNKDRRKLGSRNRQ
In words: co-IP; IP with anti-Flag antibody from extracts of HEK-293T cells transfected with Flag-tagged Ephexin1; IP150 lysis buffer (20 mM Tris–HCl pH 7.6, 150 mM NaCl, 0.5% Nonidet P-40, 10% glycerol); western blot; cells also treated with arsenite, heat shock or Torin1 (250 nM for 1 h). Background: In western blotting, separated proteins are transferred to a membrane and probed.

Experiment [2] deals with eIF4E (human (endogenous in HEK-293T)) (UniProt P06730). Put plainly: co-IP; IP with eIF4E antibodies; control and Ephexin1-deficient cells.
In experiment [3] the target is T2, GST-Ephexin1 (full-length) (human) (UniProt Q8N5V2).
T2 sequence: T1 sequence
In words: pull-down; in vitro GST-pulldown: recombinant Hisx6-tagged translation factors with GST or GST-tagged Ephexin1 recombinant protein; both purified.

The target of experiment [4] is T1, Flag-tagged Ephexin1 (human). Put plainly: co-IP; co-IP from 40S ribosomal and polysome fractions (sucrose gradient) isolated from HEK-293T cells transfected with control or Flag-tagged Ephexin1; western blot.

No constants are given. Whether binding was seen depends on the method and setting. For some assays here: Binding seen in cells or lysates may run through a third protein. Some entries that bind do so weakly or less than the wild type. For some assays here: Tags and fused reporters may be left off the sequences shown.

For the substance eIF3b (from UniProt P55884 1-814), in experiment [1], the binding result is given as “binds”. On the same count and under the same terms, to eIF4E (from UniProt P06730 1-217) belongs “binds”. Consider eIF3i (from UniProt Q13347 1-325), for which the binding result in experiment [1] and in experiment [2] was “binds” throughout. For eIF2a (from UniProt P05198 1-315), the binding entry in experiment [1] is on record as “binds”. In the case of “Hisx6-tagged eIF3i (from UniProt Q13347 1-325)”, the binding entry in experiment [3] is on record as “binds”.

For “Hisx6-tagged eIF3g (from UniProt O75821 1-320)”, the binding result in experiment [3] is reported as “binds”. Take “Hisx6-tagged eIF2α (from UniProt P05198 1-315)”: in experiment [3], the binding result was “binds”. For the substance eIF4A1 (from UniProt P60842 1-406), the binding entry in experiment [4] and in experiment [1] was “binds” throughout. Take eIF3f (from UniProt O00303 1-357): the binding entry in experiment [1] was “binds”.
